Results: article doi:10.1101/2022.06.30.498349
No constants are given. Whether binding was seen depends on the method and setting. Binding seen in cells or lysates may run through a third protein. Some binding calls cover weakened binding; strength is not graded here.

The chains behind the UniProt entries cited, without tags or fusion partners.
UniProt P42227: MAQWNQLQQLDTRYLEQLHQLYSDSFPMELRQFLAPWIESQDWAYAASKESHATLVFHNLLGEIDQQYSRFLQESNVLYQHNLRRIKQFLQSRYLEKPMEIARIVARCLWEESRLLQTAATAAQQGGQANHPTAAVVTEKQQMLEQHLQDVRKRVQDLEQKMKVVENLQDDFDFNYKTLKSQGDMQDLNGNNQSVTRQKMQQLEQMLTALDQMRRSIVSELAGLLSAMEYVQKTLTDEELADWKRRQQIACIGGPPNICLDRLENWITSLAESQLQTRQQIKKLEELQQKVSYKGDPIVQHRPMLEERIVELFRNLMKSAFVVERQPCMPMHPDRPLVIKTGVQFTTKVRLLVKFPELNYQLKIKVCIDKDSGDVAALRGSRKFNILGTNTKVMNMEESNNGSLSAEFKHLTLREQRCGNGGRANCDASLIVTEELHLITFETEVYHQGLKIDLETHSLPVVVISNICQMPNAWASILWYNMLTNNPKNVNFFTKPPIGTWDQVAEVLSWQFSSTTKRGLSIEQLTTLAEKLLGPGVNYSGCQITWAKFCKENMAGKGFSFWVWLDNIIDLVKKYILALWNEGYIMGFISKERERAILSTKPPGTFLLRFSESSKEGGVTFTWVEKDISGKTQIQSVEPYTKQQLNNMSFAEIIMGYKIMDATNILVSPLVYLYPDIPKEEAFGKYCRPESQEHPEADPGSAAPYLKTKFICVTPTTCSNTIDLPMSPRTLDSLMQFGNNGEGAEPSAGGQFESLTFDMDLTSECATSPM
UniProt P46938: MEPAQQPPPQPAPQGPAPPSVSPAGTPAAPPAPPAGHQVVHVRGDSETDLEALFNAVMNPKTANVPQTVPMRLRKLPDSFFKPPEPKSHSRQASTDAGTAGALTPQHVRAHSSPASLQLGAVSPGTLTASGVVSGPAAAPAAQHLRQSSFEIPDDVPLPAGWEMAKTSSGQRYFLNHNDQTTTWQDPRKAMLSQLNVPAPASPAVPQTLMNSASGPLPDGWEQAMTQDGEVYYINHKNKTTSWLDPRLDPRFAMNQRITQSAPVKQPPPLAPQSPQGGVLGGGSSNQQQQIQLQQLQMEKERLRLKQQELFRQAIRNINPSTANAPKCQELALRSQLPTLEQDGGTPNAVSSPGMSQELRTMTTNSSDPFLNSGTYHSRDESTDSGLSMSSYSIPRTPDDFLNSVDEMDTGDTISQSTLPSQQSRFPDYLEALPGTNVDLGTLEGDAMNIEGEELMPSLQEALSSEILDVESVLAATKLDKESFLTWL

Molecular target: STAT3 phosphorylated at Y705 (pSTAT3 Y705) (mouse (endogenous in mouse colonic IECs)) (UniProt P42227)
Experiment: co-IP

binding: binds
Substance: YAP (from UniProt P46938 1-488)
